A short description of the series: 1H NMR titration, binding to carbohydrate substrate. The method, then: The binding of receptor compound 3 to carbohydrate substrates, in aqueous solution, was studied initially by ^1H NMR titrations at 298 K. The saccharides used as test substrates are shown in FIG. 7.
Titrations were performed on a Varian™ 500 MHz spectrometer. Solutions of reducing carbohydrates were prepared in D2O and kept overnight at room temperature before the titration experiments, in order to ensure equilibration of anomers. In a typical titration, aliquots of carbohydrate solution were added to receptor solution (DSS as internal standard) and the ^1H NMR spectra were recorded. Variations in chemical shifts were entered into a specifically written non-linear least squares curve-fitting program implemented within Excel™. Assuming 1:1 stoichiometry, the program calculates Ka and the limiting change in chemical shift Δδ. The assumption is supported by the generally good fits between observed and calculated data.

Regarding `O=C(O)CCOCC(COCCC(=O)O)(COCCC(=O)O)NC(=O)c1cc2cc(c1)C(=O)NCc1c3ccccc3c(c3ccccc13)CNC(=O)c1cc(cc(C(=O)NC(COCCC(=O)O)(COCCC(=O)O)COCCC(=O)O)c1)C(=O)NCc1c3ccccc3c(c3ccccc13)CNC2=O` [Compound 3], the “downfield shift of signal of externally-directed protons F on addition of glucose” value was roughly 0.15 ppm. For the same molecule, the “Δδ, downfield movement of signal of internally-directed protons E on addition of glucose” value (limiting value) is given as roughly 0.8 ppm.

The values are drawn from patent US9610365B2, “Anthracenyl-tetralactam macrocycles and their use in detecting a target saccharide” (UNIVERSITY OF BRISTOL, priority 2012, dated 2017).
